# According to the supplement of paper PMC12823440, “Inhibitors supercharge kinase turnover through native proteolytic circuits” (Nature, 2025):
# By UniProt entry, the sequences of proteins in these tests, tags left out. Where a name states a change or a piece, a line headed by the entry shows the natural chain unless it says otherwise.
# UniProt P48729: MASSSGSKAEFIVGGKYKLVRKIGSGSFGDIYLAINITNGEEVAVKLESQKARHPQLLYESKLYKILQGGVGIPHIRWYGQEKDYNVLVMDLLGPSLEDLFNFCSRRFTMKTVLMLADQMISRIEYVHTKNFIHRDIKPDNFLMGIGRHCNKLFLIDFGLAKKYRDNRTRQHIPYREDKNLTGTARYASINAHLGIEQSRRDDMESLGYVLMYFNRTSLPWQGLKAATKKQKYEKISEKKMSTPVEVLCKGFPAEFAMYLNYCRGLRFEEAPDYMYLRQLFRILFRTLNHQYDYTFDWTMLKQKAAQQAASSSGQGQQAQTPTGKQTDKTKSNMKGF
# UniProt P48730: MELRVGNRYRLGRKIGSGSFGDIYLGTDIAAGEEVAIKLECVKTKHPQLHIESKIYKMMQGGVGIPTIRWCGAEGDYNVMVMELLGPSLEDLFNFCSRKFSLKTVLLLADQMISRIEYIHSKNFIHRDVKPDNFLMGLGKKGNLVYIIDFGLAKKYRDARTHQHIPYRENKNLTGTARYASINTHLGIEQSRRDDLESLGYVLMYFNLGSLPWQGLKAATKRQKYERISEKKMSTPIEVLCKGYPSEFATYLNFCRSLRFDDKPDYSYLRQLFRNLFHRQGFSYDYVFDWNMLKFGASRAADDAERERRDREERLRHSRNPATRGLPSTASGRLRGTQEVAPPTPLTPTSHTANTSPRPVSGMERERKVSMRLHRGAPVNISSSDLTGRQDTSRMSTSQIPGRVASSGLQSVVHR
# UniProt Q08345: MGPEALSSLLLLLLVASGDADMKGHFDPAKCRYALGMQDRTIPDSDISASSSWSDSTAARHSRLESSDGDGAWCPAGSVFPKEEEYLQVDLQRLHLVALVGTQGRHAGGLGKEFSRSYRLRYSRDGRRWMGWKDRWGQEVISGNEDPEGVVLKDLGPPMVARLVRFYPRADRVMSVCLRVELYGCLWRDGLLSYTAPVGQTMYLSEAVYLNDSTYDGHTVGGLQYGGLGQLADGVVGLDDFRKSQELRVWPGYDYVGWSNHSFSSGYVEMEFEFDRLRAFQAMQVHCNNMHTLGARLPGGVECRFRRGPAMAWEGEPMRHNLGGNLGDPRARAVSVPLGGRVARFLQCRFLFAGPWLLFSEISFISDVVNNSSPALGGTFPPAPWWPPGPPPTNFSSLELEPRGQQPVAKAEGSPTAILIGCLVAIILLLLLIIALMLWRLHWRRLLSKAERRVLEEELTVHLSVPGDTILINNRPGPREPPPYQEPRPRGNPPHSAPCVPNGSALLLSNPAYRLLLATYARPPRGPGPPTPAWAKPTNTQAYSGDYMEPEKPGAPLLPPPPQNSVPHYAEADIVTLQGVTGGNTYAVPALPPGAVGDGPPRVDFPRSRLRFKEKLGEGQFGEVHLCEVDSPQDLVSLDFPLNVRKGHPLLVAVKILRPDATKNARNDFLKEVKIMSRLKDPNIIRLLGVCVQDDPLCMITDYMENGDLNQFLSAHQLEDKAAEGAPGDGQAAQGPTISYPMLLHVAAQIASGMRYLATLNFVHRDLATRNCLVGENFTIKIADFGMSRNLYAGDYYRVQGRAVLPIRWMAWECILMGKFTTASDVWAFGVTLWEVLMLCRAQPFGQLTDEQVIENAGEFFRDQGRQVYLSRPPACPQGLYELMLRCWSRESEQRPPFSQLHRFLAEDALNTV
# UniProt Q9Y463, whole entry, looked up: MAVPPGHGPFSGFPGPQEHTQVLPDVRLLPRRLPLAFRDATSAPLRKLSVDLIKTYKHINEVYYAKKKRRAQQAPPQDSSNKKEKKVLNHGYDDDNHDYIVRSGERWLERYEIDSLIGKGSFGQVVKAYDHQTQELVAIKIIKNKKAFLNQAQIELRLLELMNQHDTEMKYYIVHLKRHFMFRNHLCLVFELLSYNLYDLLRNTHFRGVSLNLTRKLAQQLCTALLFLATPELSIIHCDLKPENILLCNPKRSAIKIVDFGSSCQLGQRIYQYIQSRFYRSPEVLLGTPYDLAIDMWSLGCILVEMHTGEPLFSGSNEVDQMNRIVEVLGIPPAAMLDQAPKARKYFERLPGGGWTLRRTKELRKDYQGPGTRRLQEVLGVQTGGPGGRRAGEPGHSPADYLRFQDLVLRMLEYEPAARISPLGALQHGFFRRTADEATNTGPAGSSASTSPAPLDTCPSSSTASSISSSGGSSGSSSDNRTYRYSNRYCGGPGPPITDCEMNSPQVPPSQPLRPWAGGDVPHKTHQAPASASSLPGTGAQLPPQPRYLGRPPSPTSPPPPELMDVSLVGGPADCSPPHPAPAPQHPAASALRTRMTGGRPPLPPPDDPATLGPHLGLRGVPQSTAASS
# UniProt Q92630: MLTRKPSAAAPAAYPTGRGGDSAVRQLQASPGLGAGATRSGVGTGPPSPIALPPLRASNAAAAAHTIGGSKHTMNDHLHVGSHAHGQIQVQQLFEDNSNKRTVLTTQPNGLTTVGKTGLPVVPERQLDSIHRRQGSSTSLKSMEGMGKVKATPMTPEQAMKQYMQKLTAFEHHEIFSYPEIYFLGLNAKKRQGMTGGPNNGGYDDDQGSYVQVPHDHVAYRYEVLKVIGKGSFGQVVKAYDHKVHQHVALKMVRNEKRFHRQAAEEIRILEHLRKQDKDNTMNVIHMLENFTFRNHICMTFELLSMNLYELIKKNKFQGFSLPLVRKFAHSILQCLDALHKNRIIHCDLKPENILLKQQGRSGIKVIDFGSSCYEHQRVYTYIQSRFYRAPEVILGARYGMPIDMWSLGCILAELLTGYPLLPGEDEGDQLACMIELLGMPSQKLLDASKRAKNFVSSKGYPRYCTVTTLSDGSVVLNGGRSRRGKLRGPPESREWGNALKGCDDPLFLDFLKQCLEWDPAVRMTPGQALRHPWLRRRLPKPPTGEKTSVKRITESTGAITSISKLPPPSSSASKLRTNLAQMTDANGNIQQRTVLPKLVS
# This is one part of the list. Hit calls seldom repeat between salt and free forms of one compound.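 In K562 cells expressing nanoluciferase-fused kinases, luminescence was recorded at 4 h intervals between 2 and 18 h, normalized as percent of control with DMSO at 100% and a positive control at 0%. A significant (2 sigma) signal drop marks a time point as decreased. The authors' rule for a hit is not shown and takes in more than the number of time points.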
# Experiments:
# Assay in all cases: number of time points (of 5) at which kinase-Nluc abundance scored as decreased, DMSO-normalised (count); higher = more persistent destabilization
# Settings in all cases: K562; 2-18 h
# CSNK1A1 = CSNK1A1 (UniProt P48729)
# CSNK1D = CSNK1D (UniProt P48730)
# DDR1 = DDR1 (UniProt Q08345)
# DYRK1B = DYRK1B (UniProt Q9Y463)
# DYRK2 = DYRK2 (UniProt Q92630)
# EGFR = EGFR (UniProt P00533)
# EGFR_G719S = EGFR_G719S (UniProt P00533)
# EGFR_G719S_T790M = EGFR_G719S_T790M (UniProt P00533)
# EGFR_L718V = EGFR_L718V (UniProt P00533)
# EGFR_L858R = EGFR_L858R (UniProt P00533)
Structure (SMILES),number of time points (CSNK1A1),number of time points (CSNK1D),number of time points (DDR1),number of time points (DYRK1B),number of time points (DYRK2),number of time points (EGFR),number of time points (EGFR_G719S),number of time points (EGFR_G719S_T790M),number of time points (EGFR_L718V),number of time points (EGFR_L858R)
CN(C)CCCOc1ccc(-c2ccc3ncc4c(c3c2)n(C2CCOCC2)c(=O)n4C)cn1 (2 µM),0,0,0,0,0,0,0,0,0,0
C=C1C(=O)O[C@H]2C[C@H](C)C(/C=C/C(C)=O)=CC[C@H]12 [Xanthatin] (2.5 µM),0,0,0,0,0,0,0,0,0,0
COc1cc2nccc(Oc3ccc(NC(=O)NC4CC4)c(Cl)c3)c2cc1C(N)=O [Lenvatinib (mesylate)] (10 µM),3,0,0,1,4,1,0,1,0,2
Cc1[nH]c(/C=C2\C(=O)Nc3ccccc32)c(C)c1CCC(=O)O [(Z)-Orantinib] (10 µM),0,–,0,0,0,–,–,–,–,–
Oc1cc(O)c2cc(O)c(-c3cc(O)c(O)c(O)c3)[o+]c2c1 [Delphinidin (chloride)] (10 µM),3,3,0,0,0,2,2,0,0,0
Cc1c(-c2c(F)cc(C(N)=O)c3[nH]c4c(c23)CC[C@H](C(C)(C)O)C4)cccc1-n1c(=O)c2cccc(F)c2n(C)c1=O (2.5 µM),0,0,0,0,0,0,0,0,0,0
Cn1cnc2c(F)c(Nc3ccc(Br)cc3Cl)c(C(=O)NOCCO)cc21 [Selumetinib] (10 µM),0,0,1,0,0,0,0,0,0,0
CC(C)(C)c1cc(O)ccc1O (10 µM),0,0,0,0,0,0,0,0,0,0
N#CCC1CCN(c2nc(Nc3ccc(N4CCC(O)CC4)cc3)c3c(=O)[nH]ncc3n2)CC1 [Gusacitinib] (10 µM),0,0,0,0,0,0,0,0,0,0
COc1ncc(Cl)cc1S(=O)(=O)Nc1ccc(F)c(C#Cc2cnc(N)nc2)c1F (2.5 µM),5,0,0,0,0,1,2,0,0,0
CNc1nc(Nc2ccc(C(=O)N3CCOCC3)cc2OC)nc2[nH]cc(Cl)c12 (2.5 µM),0,0,0,0,0,0,0,0,0,0
Nc1ncnc2c1c(-c1ccc(Oc3ccccc3)cc1)nn2C1CCCC1 (2.5 µM),0,0,0,0,3,0,0,0,0,0
FC(F)c1nc2ccccc2n1-c1nc(N2CCOCC2)nc(N2CCOCC2)n1 (2 µM),0,0,4,0,0,0,0,0,0,0
CCCCCCCCCCCCC/C=C/[C@@H](O)[C@@H](N)CO [D-erythro-Sphingosine] (2.5 µM),0,0,0,0,0,0,0,0,0,0
NS(=O)(=O)c1ccc(-n2nc(C(F)(F)F)cc2-c2ccc(Cl)cc2)cc1 (10 µM),0,0,0,0,0,0,0,0,0,0
CCOc1ccc2cc(-c3nn(CC4CCN(C)CC4)c4ncnc(N)c34)ccc2n1 (10 µM),0,0,0,0,0,0,0,0,0,0
COc1cc(Nc2ncc(F)c(Nc3ccc4c(n3)N(COP(=O)(O)O)C(=O)C(C)(C)O4)n2)cc(OC)c1OC [Fostamatinib Disodium] (10 µM),0,0,1,0,0,0,0,0,0,0

# A stretch from the list above, as a working copy:
Structure (SMILES),number of time points (CSNK1A1),number of time points (CSNK1D),number of time points (DDR1),number of time points (DYRK1B),number of time points (DYRK2),number of time points (EGFR),number of time points (EGFR_G719S),number of time points (EGFR_G719S_T790M),number of time points (EGFR_L718V),number of time points (EGFR_L858R)
C=C1C(=O)O[C@H]2C[C@H](C)C(/C=C/C(C)=O)=CC[C@H]12 [Xanthatin] (2.5 µM),0,0,0,0,0,0,0,0,0,0
COc1cc2nccc(Oc3ccc(NC(=O)NC4CC4)c(Cl)c3)c2cc1C(N)=O [Lenvatinib (mesylate)] (10 µM),3,0,0,1,4,1,0,1,0,2
